No constants are given. Whether binding was seen depends on the method and setting. Some entries that bind do so weakly or less than the wild type.
Assays:
[1] = target: T1, IL-13Rα2 (interleukin 13 receptor subunit alpha 2), full length, expressed on transfected cells (human) (UniProt Q14627); assay: displacement of 125I-labeled IL-13 from CHO cells transfected with IL-13Rα2
T1 sequence: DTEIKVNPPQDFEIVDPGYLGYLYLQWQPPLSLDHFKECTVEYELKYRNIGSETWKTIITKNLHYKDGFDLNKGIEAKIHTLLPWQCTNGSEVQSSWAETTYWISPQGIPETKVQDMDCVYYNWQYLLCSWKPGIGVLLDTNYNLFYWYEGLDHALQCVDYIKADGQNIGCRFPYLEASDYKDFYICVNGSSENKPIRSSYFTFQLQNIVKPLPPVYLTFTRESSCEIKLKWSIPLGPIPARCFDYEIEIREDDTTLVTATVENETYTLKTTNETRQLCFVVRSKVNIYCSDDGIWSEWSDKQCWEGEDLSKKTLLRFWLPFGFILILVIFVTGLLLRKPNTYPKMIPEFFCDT

The chains behind the UniProt entries cited, without tags or fusion partners. Where a name states a change or a piece, a line headed by the entry shows the natural chain unless it says otherwise. A line that says so, or that is headed by a name, gives the form on record, which may keep a tag or linker. Residues count along the entry.
IL-13 (P35225, residues 33-146): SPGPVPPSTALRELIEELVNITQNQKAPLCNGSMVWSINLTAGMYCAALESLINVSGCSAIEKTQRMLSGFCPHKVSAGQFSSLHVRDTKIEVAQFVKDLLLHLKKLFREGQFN
IL-13.E13K (P35225, form named): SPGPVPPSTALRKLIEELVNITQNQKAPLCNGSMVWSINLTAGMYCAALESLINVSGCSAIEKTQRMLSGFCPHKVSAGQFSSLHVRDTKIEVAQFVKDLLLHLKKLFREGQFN

[2] = target: T1, IL-13Rα2 (interleukin 13 receptor subunit alpha 2), full length, expressed on transfected cells (human); assay: binding of 125I-labeled IL-13 to CHO cells transfected with IL-13Rα2

binding [1]	binding [2]	Substance
binds		IL-13.E13K (from UniProt P35225 33-146) (ligand)
	binds	IL-13 (from UniProt P35225 33-146) (ligand)

Source: patent publication US7338929
